{
  "source": "patent US8568699B2",
  "about": "“Soft anticholinergic zwitterions” (priority 2005, dated 2013)",
  "tested_on": "electrically stimulated guinea pig tracheal strips",
  "type": "cell-based",
  "data": [
    {"compound": "CC(C)[N+]1(C)[C@@H]2CC[C@H]1CC(OC(=O)C(CO)c1ccccc1)C2.[Br-]", "note": "(stereo partly shown) [Ipratropium Br, ipratropium bromide]", "values": [
      {"measurement": "t1/5 offset", "result": 6.5, "unit": "min"}
    ]}
  ]
}
